# Literature values, collected in patent US10953113B2, “Imaging agents and methods of use” (The Board of Regents of the University of Oklahoma, priority 2016, dated 2021).
# System: infarcted myocardium
# Conditions: infarct-avid scintigraphy; cited from earlier work
smiles,measurement,value
"O=P([O-])([O-])OP(=O)([O-])[O-].[99Tc] [PyP, ^99mTc-pyrophosphate]",Sensitivity for subendocardial infarct detection,40%
same,Specificity,64%
